The test system of this test is BDF1 mice, B16 melanoma ip, median survival T/C. Kind of test: NCI In Vivo Anticancer Drug Screen. Data for tumor model B16 Melanoma (intraperitoneal) in B6D2F1 (BDF1) mice. The note with it: T/C endpoint: median survival time, higher T/C = longer survival. Summed up:
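Mice with transplantable tumors; drug vs vehicle groups; endpoint survival or tumor size; value = T/C.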

[1] abbreviates: dose: 200.0 mg/kg/injection, schedule: Q01DX009 (ip), vehicle: saline.
[2] abbreviates: dose: 400.0 mg/kg/injection, schedule: Q01DX009 (ip), vehicle: saline.
The mark [3] stands for this setting: dose: 25.0 mg/kg/injection, schedule: Q01DX009 (ip), vehicle: Klucel (hydroxypropylcellulose) (HPC).
The mark [4] stands for this setting: dose: 50.0 mg/kg/injection, schedule: Q01DX009 (ip), vehicle: saline with Tween-80.
The mark [5] stands for this setting: dose: 200.0 mg/kg/injection, schedule: Q01DX009 (ip), vehicle: saline with Tween-80.
Where [6] appears, read: dose: 100.0 mg/kg/injection, schedule: Q01DX009 (ip), vehicle: Klucel (hydroxypropylcellulose) (HPC).
Where [7] appears, read: dose: 200.0 mg/kg/injection, schedule: Q01DX009 (ip), vehicle: Klucel (hydroxypropylcellulose) (HPC).
Setting [8] is: dose: 400.0 mg/kg/injection, schedule: Q01DX009 (ip), vehicle: Klucel (hydroxypropylcellulose) (HPC).
The mark [9] stands for this setting: dose: 75.0 mg/kg/injection, schedule: Q01DX009 (ip), vehicle: Klucel (hydroxypropylcellulose) (HPC).
Where [10] appears, read: dose: 100.0 mg/kg/injection, schedule: Q01DX009 (ip), vehicle: saline with Tween-80.
Where [11] appears, read: dose: 400.0 mg/kg/injection, schedule: Q01DX009 (ip), vehicle: saline with Tween-80.

SMILES strings stand for the structures. The list is a part of this screen's results and no random one: it is rich in T/C values a quarter to a half above the control, in often repeated tests (any T/C) and in doses without a T/C. Further doses and runs are listed elsewhere. T/C gives the treated animals as a percentage of the vehicle group. Some doses have a count of surviving animals in place of a T/C: the source holds a T/C of zero for them, seemingly a mark for toxic or unscored doses. Some doses without a T/C left all or most animals alive at the check, yet need not have been tolerated: survival well below the control is almost never listed, so the zero probably covers shortened survival too. Counts of survivors are from the toxicity check (mostly the fifth day) where no day follows; animals may have died later. Schedules are NCI's codes, read here as Q, the interval in days (D) or hours (H), X, the number of doses. Some entries hold several experiments; their values stand side by side, smallest first. Where survival is the endpoint, the PubChem record calls one and a half times the control and up active, and a quarter to a half above the control has no call in these data; cut-offs in other NCI protocols can differ.

On to `c1cc2n(n1)CCN2`, for which the survivor count by setting is: (dose: 100.0 mg/kg/injection, schedule: Q01DX009 (ip), vehicle: saline) 10 of 10; under setting [1], 10 of 10; (dose: 300.0 mg/kg/injection, schedule: Q01DX009 (ip), vehicle: saline) 8 of 10; under setting [2], 0 of 10; (dose: 800.0 mg/kg/injection, schedule: Q04DX003 (ip), vehicle: saline with Tween-80) 5 of 10.

For the molecule `CCC(C)Sc1nc(N)nc2c1ncn2C1OC(CO)C(O)C1O` (stereo not drawn), the survivor count (dose: 300.0 mg/kg/injection, schedule: Q01DX009 (ip), vehicle: Klucel (hydroxypropylcellulose) (HPC)) is on record as 10 of 10.

As for `O=C1c2ccccc2C(=O)N1CCC[P+](c1ccccc1)(c1ccccc1)c1ccccc1`, the survivor count under setting [3] is 2 of 10.

Turning to `CCCCCN(C)/N=N/c1nc[nH]c1C(N)=O`, the T/C (dose: 6.25 mg/kg/injection, schedule: Q01DX009 (ip), vehicle: carboxymethylcellulose (CMC)) was 132 % of control and the T/C (dose: 12.5 mg/kg/injection, schedule: Q01DX009 (ip), vehicle: carboxymethylcellulose (CMC)) is 126 % of control. The survivor count runs as follows: (dose: 25.0 mg/kg/injection, schedule: Q01DX009 (ip), vehicle: carboxymethylcellulose (CMC)) 6 of 6; (dose: 50.0 mg/kg/injection, schedule: Q01DX009 (ip), vehicle: carboxymethylcellulose (CMC)) 6 of 6; (dose: 100.0 mg/kg/injection, schedule: Q01DX009 (ip), vehicle: carboxymethylcellulose (CMC)) 6 of 6.

Take `COCCNCCOC`: the T/C (dose: 80.0 mg/kg/injection, schedule: Q01DX009 (ip), vehicle: saline) was 134 % of control.

Consider `CS(=O)(=O)c1cc(=O)[nH]c(=O)[nH]1`, for which the survivor count was 10 of 10 under setting [4] and 7 of 10 under setting [5].

Turning to `CC12C=CC(=O)C=C1CCC1C2C(O)CC2(C)C1CCC2(O)C(=O)COC(=O)CCCc1ccc(N(CCCl)CCCl)cc1` (stereo not drawn), the T/C (dose: 20.0 mg/kg/injection, schedule: Q01DX011 (ip), vehicle: saline) was 126 % of control.

In the case of `Cc1n(Cc2ccccc2)c2c([n+]1C)C(=O)c1ccccc1C2=O`, the survivor count (dose: 2.0 mg/kg/injection, schedule: Q01DX009 (ip), vehicle: saline) is 6 of 6.

For the molecule `O=C1CC2(CCCCC2)CO1`, the survivor count is 10 of 10 (dose: 3.12 mg/kg/injection, schedule: Q01DX009 (ip), vehicle: saline); 9 of 10 (dose: 6.25 mg/kg/injection, schedule: Q01DX009 (ip), vehicle: saline); 0 of 10 (dose: 12.5 mg/kg/injection, schedule: Q01DX009 (ip), vehicle: saline); 0 of 10 (dose: 25.0 mg/kg/injection, schedule: Q01DX009 (ip), vehicle: saline); 0 of 10 (dose: 50.0 mg/kg/injection, schedule: Q01DX009 (ip), vehicle: saline).

Consider `NC1CCC(CCCC2CCCC2)CC1` (stereo not drawn), for which the survivor count under setting [3] is on record as 10 of 10; the survivor count (dose: 50.0 mg/kg/injection, schedule: Q01DX009 (ip), vehicle: Klucel (hydroxypropylcellulose) (HPC)) is 10 of 10; the survivor count under setting [6] was 6 of 10.

As to `CCC1C(=O)NC(=O)C1(C)c1ccccc1` (stereo not drawn), the survivor count under setting [2] is on record as 5 of 10.

On to `Cn1cnc([N+](=O)[O-])c1S(=O)(=O)NCN1CCOCC1`, for which the survivor count runs as follows: under setting [7], 4 of 10; under setting [8], 0 of 10.

Turning to `CC1(C)N=C(N)N=C(N)N1c1ccc2ccccc2c1`, the survivor count under setting [9] is listed as 7 of 10 and the survivor count under setting [10] was 0 of 10.

For `N#CC1C(=O)c2ccccc2C1=O`, under setting [10], the survivor count is 9 of 10.

In the case of `COC1=CC(=O)C(OC)=C(OC)C1=O`, the survivor count under setting [10] is recorded as 0 of 10.

On to `O=C(O)/C=C/C(=O)Nc1cccc(Oc2ccc([N+](=O)[O-])cc2[N+](=O)[O-])c1`, for which the survivor count under setting [9] is given as 10 of 10.

Regarding `CCN(CC)CCOc1ccc(Br)cc1`, the survivor count is 9 of 10 under setting [3], 6 of 10 under setting [6] and 1 of 10 under setting [7].

For the molecule `O=C(O)CC1(CC(=O)O)CCCCC1`, the survivor count under setting [5] was 10 of 10.

Consider `COc1ccc(NC(=O)Nc2cccc(Cl)c2C)cc1`, for which the survivor count (dose: 75.0 mg/kg/injection, schedule: Q01DX009 (ip), vehicle: saline with Tween-80) is on record as 10 of 10.

Turning to `Cc1ccc(NC(=O)Nc2ccccc2Cl)cc1Cl`, the survivor count under setting [7] is on record as 10 of 10.

With `Cc1cc(C)c(COCc2cc(C)c(C)cc2C)cc1C`, the survivor count is given as 6 of 6 (dose: 200.0 mg/kg/injection, schedule: Q01DX009 (ip), vehicle: water) and 4 of 6 (dose: 400.0 mg/kg/injection, schedule: Q01DX009 (ip), vehicle: water).

`OCCN1CCCN(CCCN2c3ccccc3Sc3ccc(C(F)(F)F)cc32)CC1`: where the note is “dose: 1.17 mg/kg/injection, schedule: Q04DX003 (ip), vehicle: saline”, the T/C was 127 % of control. In addition, the survivor count is, setting by setting: (dose: 9.37 mg/kg/injection, schedule: Q01DX009 (ip), vehicle: saline) 10 of 10; (dose: 18.75 mg/kg/injection, schedule: Q04DX003 (ip), vehicle: saline) 3 of 10.

Take `COc1ccc(NC(=O)Oc2ccccc2-c2ccccc2)cc1`: the survivor count is recorded as 10 of 10 under setting [10], 10 of 10 under setting [5] and 10 of 10 under setting [11].

For the molecule `Clc1ccc2sc3c(c2c1)CCNC3`, the survivor count under setting [7] was 0 of 10.

With `CCNCC#CCNCC`, under setting [1], the survivor count is on record as 8 of 10.

`O=C(N/N=C\c1cc(Br)cc(Br)c1O)N/N=C/c1cc(Br)cc(Br)c1O`: the T/C is, setting by setting: (dose: 12.5 mg/kg/injection, schedule: Q01DX009 (ip), vehicle: saline with Tween-80) 132 % of control; (dose: 25.0 mg/kg/injection, schedule: Q01DX009 (ip), vehicle: saline with Tween-80) 91, 107, 134, 168 % of control; under setting [4], 130, 136, 140, 159 % of control; under setting [10], 118, 123, 160, 164 % of control; under setting [5], 128 and 164 % of control; under setting [11], 157 % of control. The T/C (dose: 400.0 mg/kg/injection, schedule: Q01DX009 (ip), vehicle: sodium bicarbonate) was 126 % of control. Besides, the survivor count under setting [5] was 8 of 10 and 10 of 10; the survivor count under setting [11] is given as 6 of 10, 8 of 10, 9 of 10.

`CCN1/C(=C/C=C/C=C/c2sc3ccccc3[n+]2CC)Sc2ccccc21`: the survivor count (dose: 0.4 mg/kg/injection, schedule: Q01DX009 (ip), vehicle: saline) is listed as 10 of 10.

Take `COc1ccc(Br)cc1/C=N\NS(=O)(=O)c1ccc(C)cc1`: under setting [11], the survivor count is reported as 6 of 6.

Consider `NC(CCCC(=O)O)P(=O)(O)O` (stereo not drawn), for which the survivor count reads like this: under setting [7], 8 of 10; under setting [8], 5 of 10.

As to `N#CCCC1C2CCC(C2)C1C#N` (stereo not drawn), the survivor count (dose: 20.0 mg/kg/injection, schedule: Q01DX009 (ip), vehicle: Klucel (hydroxypropylcellulose) (HPC)) is listed as 5 of 10.

For `O=C(CBr)c1ccc(-c2ccccc2)cc1`, the survivor count is, setting by setting: (dose: 50.0 mg/kg/injection, schedule: Q04DX003 (ip), vehicle: Klucel (hydroxypropylcellulose) (HPC)) 9 of 10; under setting [6], 7 of 10; (dose: 100.0 mg/kg/injection, schedule: Q04DX003 (ip), vehicle: Klucel (hydroxypropylcellulose) (HPC)) 9 of 10; under setting [7], 1 of 10; (dose: 200.0 mg/kg/injection, schedule: Q04DX003 (ip), vehicle: Klucel (hydroxypropylcellulose) (HPC)) 4 of 10.

The record behind these values is PubChem BioAssay AID192 (DTP/NCI, 2004).
